{
  "source": "PubChem BioAssay AID2685",
  "about": "(National Center for Advancing Translational Sciences (NCATS), 2010)",
  "assay": "qHTS Assay for Lipid Storage Modulators in Drosophila S3 Cells; also: potency is read from the fitted curve at half-maximal effect; as to lipid storage change, negative = inhibition: % is scaled to controls: 0 for no effect and ±100 for the full control effect",
  "conditions": "BODIPY lipid droplet fluorescence, 18-24 h, cells fed with added oleic acid",
  "method_in_brief": "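Laser-scanning cytometry quantifies lipid droplet accumulation (500–530 nm total intensity; droplet/cell object ratio) in oleic acid-fed (400 uM added) Drosophila S3 cells treated with a concentration series. 20 uM Triacsin C defined 100% inhibition.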",
  "key": {"[1]": {"conditions": "lipid storage change, negative = inhibition: at 46.1 µM (top of the series) unless noted"}},
  "note": "Hit rate of the full screen: of about 320,000 compounds, about 2,100 (0.66%) were called active. The inconclusive results got no clear call from the source; some entries with a clear call stand among them for comparison. Calls follow the shape of the dose curve; as a rule, active = well fitted inhibition curve with a large enough effect in the signal ratio, with a control signal flat (not every such curve was filed as active); inconclusive = small, poorly fitted or top-dose-only effect, or effect the other way, or a change in a side signal; inactive = flat fitted curve, though single readings scatter; the % refers to the signal ratio. Potencies beside an inconclusive call are fits to weak or partial responses and may not hold up.",
  "data": [
    {"molecule": "Cc1ccc(CSC2=NCCN2C(=O)C(C)Oc2ccccc2)cc1", "note": "(configuration not stated)", "values": [
      {"measurement": "lipid storage change, negative = inhibition", "setting": "[1]", "result": "inconclusive: 0.467%"}
    ]},
    {"molecule": "Cc1ccc(/C=N/NC(=O)c2ccc3nc[nH]c3c2)o1", "values": [
      {"measurement": "lipid storage change, negative = inhibition", "setting": "[1]", "result": "inconclusive: -3%"}
    ]},
    {"molecule": "CCCCn1c(N)c(N(CCC(C)C)C(=O)c2ccccc2-n2cnnn2)c(=O)[nH]c1=O", "values": [
      {"measurement": "lipid storage change, negative = inhibition", "setting": "[1]", "result": "inconclusive"}
    ]},
    {"molecule": "COc1ccc2nc(SCC(=O)NCCc3ccccc3)[nH]c2c1", "values": [
      {"measurement": "Potency", "setting": "[1]", "result": "inconclusive: 16.4 µM [falling, partial curve, poor fit]"}
    ]},
    {"molecule": "CCCC(=O)Nc1cc(=O)n(C)c(=O)n1C", "values": [
      {"measurement": "lipid storage change, negative = inhibition", "setting": "[1]", "result": "inconclusive: -33.4%"}
    ]},
    {"molecule": "O=C(CCCOc1ccc(Cl)cc1Cl)N1CCN(c2ccccn2)CC1", "values": [
      {"measurement": "lipid storage change, negative = inhibition", "setting": "[1]", "result": "inconclusive: 8.82%"}
    ]},
    {"molecule": "O=C1c2ccccc2C(Nc2ccc(S(=O)(=O)N3CCCCCC3)cc2)N1c1ccccn1", "note": "(configuration not stated)", "values": [
      {"measurement": "lipid storage change, negative = inhibition", "setting": "[1]", "result": "inconclusive: 6.03%"}
    ]},
    {"molecule": "COc1ccc(N2CCN(C(=O)COC(=O)CCOc3ccccc3C)CC2)cc1", "values": [
      {"measurement": "lipid storage change, negative = inhibition", "setting": "[1]", "result": "inconclusive: 14.8%"}
    ]},
    {"molecule": "CCOC(=O)CSc1nc(-c2cccs2)nc2c1c(=O)n(C)c(=O)n2C", "values": [
      {"measurement": "Potency", "setting": "[1]", "result": "inconclusive: 1.46 µM [falling, partial curve, poor fit]"}
    ]},
    {"molecule": "CC1(c2ccccc2)CC(C)(C)N(C(=O)C2CCCO2)c2ccccc21", "note": "(configuration not stated)", "values": [
      {"measurement": "Potency", "setting": "[1]", "result": "inconclusive: 11.6 µM [rising, partial curve]"}
    ]},
    {"molecule": "CC1(c2ccccc2)CC(C)(C)N(C(N)=O)c2ccccc21", "note": "(configuration not stated)", "values": [
      {"measurement": "lipid storage change, negative = inhibition", "setting": "[1]", "result": "inconclusive: 17.4%"}
    ]},
    {"molecule": "Cc1noc(C)c1COc1ccccc1C(=O)NNC(=O)c1ccccc1F", "values": [
      {"measurement": "lipid storage change, negative = inhibition", "setting": "[1]", "result": "inconclusive: 13%"}
    ]},
    {"molecule": "CCC(C)(C)NC(=O)CN(C(=O)C(=O)Nc1ccc2c(c1)OCCO2)C(C)(C)CC", "values": [
      {"measurement": "Potency", "setting": "[1]", "result": "inconclusive: 7.31 µM [falling, single point]"}
    ]},
    {"molecule": "Cc1nn(CC(=O)Nc2ccc(Cl)c(S(=O)(=O)N(C)C)c2)c(C)c1[N+](=O)[O-]", "values": [
      {"measurement": "Potency", "setting": "[1]", "result": "active: 0.58 µM"}
    ]},
    {"molecule": "CC1CCCC(C)N1C(=O)COC(=O)Cc1ccc(F)cc1", "note": "(configuration not stated)", "values": [
      {"measurement": "lipid storage change, negative = inhibition", "setting": "[1]", "result": "inconclusive: -40.7%"}
    ]},
    {"molecule": "CC1(C)Oc2ccc(C(=O)NN)cc2NC1=O", "values": [
      {"measurement": "lipid storage change, negative = inhibition", "setting": "[1]", "result": "inconclusive: 1.1%"}
    ]},
    {"molecule": "O=S(=O)([O-])C(c1ccccc1)[n+]1ccccc1", "note": "(configuration not stated)", "values": [
      {"measurement": "lipid storage change, negative = inhibition", "setting": "[1]", "result": "inconclusive: -3.23%"}
    ]},
    {"molecule": "Cc1cc(C)cc(NC(=O)Nc2c(Br)cnn2C)c1", "values": [
      {"measurement": "lipid storage change, negative = inhibition", "setting": "[1]", "result": "inconclusive: -2.87%"}
    ]},
    {"molecule": "COc1cccc(/C=C/C(=O)OCC(=O)Nc2cccc(S(=O)(=O)N3CCOCC3)c2)c1OC", "values": [
      {"measurement": "Potency", "setting": "[1]", "result": "inconclusive: 29.1 µM [activator, single point]"}
    ]},
    {"molecule": "OCc1cn(-c2ccccc2)nc1-c1ccco1", "values": [
      {"measurement": "Potency", "setting": "[1]", "result": "inconclusive: 0.92 µM [rising, single point]"}
    ]},
    {"molecule": "CCN1C(=NCc2ccco2)N[C@@H](c2cccc(F)c2)C(C(=O)OC)=C1C", "values": [
      {"measurement": "lipid storage change, negative = inhibition", "setting": "at 46.1 µM (top of the series)", "result": "inactive: -18%"},
      {"measurement": "lipid storage change, negative = inhibition", "setting": "[1]", "result": "inconclusive: -37.5%"}
    ]}
  ]
}
